# Data from PubChem BioAssay AID504648 (National Center for Advancing Translational Sciences (NCATS), 2011).
# Among all 390,000 compounds or so, about 610 (0.16%) were called active. The shares of active, inactive and inconclusive entries below differ from those in the screen. The call rests on the fitted dose curve; in most records, active means well fitted inhibition curve with a large enough effect; inconclusive means small, poorly fitted or top-dose-only effect, or effect the other way, or another doubt; inactive means no such curve, though single readings can be large or run the other way. Where the call is inconclusive, the potency comes from a doubtful curve fit.
# Assay: Nrf2 qHTS screen for inhibitors: counterscreen for cytotoxicity
# Conditions: A549 ARE-Fluc cells, CellTiter-Fluor viability, 18-24 h; series mostly up to 46 µM
# Summary of the method: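 A549 ARE_Fluc cells in 5% FBS OPTI-MEM were exposed to compounds in concentration-response for 18-24 h at 37 deg C. Viability was read by CellTiter-Fluor fluorescence (Ex 405/Em 525) after 30 min, before the luciferase read.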
# Potency means the concentration at half of the fitted maximal effect.
row,SMILES,Potency
1,O=C(NCc1ccccc1)c1cnc2n(c1=O)CCS2,inactive
2,COc1ccc2c(CNCc3ccco3)c(C(=O)O)n(Cc3ccccc3)c2c1,"inconclusive: 7.31 µM [falling, partial curve, poor fit]"
3,COc1ccc(/C=C2/SC(=S)N(CCCC(=O)Nc3ccc(O)cc3)C2=O)cc1OC,"inconclusive: 18.4 µM [falling, partial curve, poor fit]"
4,O=C(CCl)Nc1ccc(N=Nc2ccccc2)cc1,inactive
5,CC(C)Oc1ccccc1/C=N/n1nnnc1N,"inconclusive: 4.11 µM [activator, full curve, poor fit]"
6,CSc1ccc(C2c3[nH]c4ccccc4c3CCN2C(=O)CCC2CCCC2)cc1 (configuration not stated),inactive
7,CC(C)(C)CC(C)(C)NC(=S)Nc1ccc2nc(-c3ccccn3)c(-c3ccccn3)nc2c1,"inconclusive: 10.3 µM [falling, single point]"
8,O=C(Nc1ccc2nc(SCC(=O)N3CCCC3)sc2c1)c1cccc(F)c1,"inconclusive: 18.4 µM [falling, partial curve, poor fit]"
9,CC(=O)c1ccc(S(=O)(=O)NCC(=O)N2CCN(C/C=C/c3ccccc3)CC2)cc1,inactive
10,CCOC(=O)C1=C(C)NC2=C(C(=O)CC(c3cccs3)C2)C1c1cccs1 (configuration not stated),"inconclusive: 23.1 µM [falling, single point]"
11,OC(COc1ccc2ccccc2c1)CN1CCCC1 (configuration not stated),"inconclusive: 32.6 µM [activator, single point]"
12,CC(C(O)c1ccc(O)cc1)N1CCC(Cc2ccccc2)CC1 (configuration not stated),inactive
13,COc1cc2c(cc1OC)/C(=C/C(=O)c1cccc([N+](=O)[O-])c1)NCC2,"inconclusive: 29.1 µM [falling, single point]"
14,COc1cc(NC(=O)c2nn(-c3ccc(F)cc3)c(=O)n(C)c2=O)cc(OC)c1OC,inactive
15,O=C(CCCN1C(=O)/C(=C\c2cccs2)SC1=S)Nc1ccc(O)cc1,"inconclusive: 23.1 µM [falling, single point]"
16,CCn1c2ccccc2c2cc(/C=N/NC(=O)c3ccc(O)cc3)ccc21,"inconclusive: 20.6 µM [falling, partial curve, poor fit]"
17,Cc1nnc(NC(=O)CSc2nnc(CC(=O)Nc3ccccc3F)n2C)s1,"inconclusive: 18.4 µM [activator, partial curve, poor fit]"
18,COc1ccc(CC(=O)Nc2nnc(-c3cccc([N+](=O)[O-])c3)s2)cc1,inactive
19,Cc1ccccc1NC(=O)c1c(NC(=O)C(F)(F)F)sc2c1CCCCC2,"inconclusive: 7.31 µM [falling, partial curve]"
20,Cc1cc(C)cc(N(CC(=O)NC2CCCCC2)C(=O)c2ccc(C)s2)c1,inactive
21,O=C(Nc1ccn(Cc2ccccc2F)n1)c1ccc(COc2ccc(Br)cc2)cc1,"inconclusive: 20.6 µM [falling, partial curve]"
22,CC(=O)N1CCC(N(Cc2ccco2)C(=O)Nc2ccc(Br)cc2F)CC1,inactive
23,Cc1cc(OCCN2CC(C)OC(C)C2)ccc1[N+](=O)[O-] (configuration not stated),inactive

# Nothing new here: five of the compounds above.
row,SMILES,Potency
5,CC(C)Oc1ccccc1/C=N/n1nnnc1N,"inconclusive: 4.11 µM [activator, full curve, poor fit]"
6,CSc1ccc(C2c3[nH]c4ccccc4c3CCN2C(=O)CCC2CCCC2)cc1 (configuration not stated),inactive
7,CC(C)(C)CC(C)(C)NC(=S)Nc1ccc2nc(-c3ccccn3)c(-c3ccccn3)nc2c1,"inconclusive: 10.3 µM [falling, single point]"
8,O=C(Nc1ccc2nc(SCC(=O)N3CCCC3)sc2c1)c1cccc(F)c1,"inconclusive: 18.4 µM [falling, partial curve, poor fit]"
9,CC(=O)c1ccc(S(=O)(=O)NCC(=O)N2CCN(C/C=C/c3ccccc3)CC2)cc1,inactive

# (list continues)

row,SMILES,Potency
1,O=C(O)C1C2C=CC(C2)C1C(=O)NCCc1ccccc1 (configuration not stated),"inconclusive: 6.51 µM [falling, partial curve, poor fit]"
2,Cc1ccc(-n2nc(C(=O)Nc3cccc(C#N)c3)c3c4ccccc4n(C)c3c2=O)cc1,"inconclusive: 1.03 µM [activator, full curve, poor fit]"
3,CC1=C(C(=O)Nc2cccnc2)C(c2ccc(Cl)cc2)n2nc(SCc3ccccc3)nc2N1 (configuration not stated),inactive
4,O=C(c1cc2nc(-c3cccs3)cc(C(F)(F)Cl)n2n1)N1CCCc2ccccc21,inactive
5,N#CC(C(=O)c1ccco1)c1ccccn1 (configuration not stated),"inconclusive: 5.8 µM [falling, partial curve, poor fit]"
6,COc1ccc(CCN2CC(O)=C(c3nc4ccccc4c(=O)[nH]3)C2=N)cc1OC,"inconclusive: 2.91 µM [activator, partial curve, poor fit]"
7,O=C1CC(c2ccco2)CC2=C1C1c3ccccc3C(=O)N1c1ccccc1N2 (configuration not stated),"inconclusive: 2.06 µM [falling, full curve]"
8,COc1ccccc1NS(=O)(=O)c1cc([N+](=O)[O-])ccc1N/N=C/c1c[nH]c2ccccc12,"inconclusive: 25.9 µM [falling, single point]"
9,CN([C@@H](Cc1ccc(OS(=O)(=O)c2cccc3cnccc23)cc1)C(=O)N1CCN(c2ccccc2)CC1)S(=O)(=O)c1cccc2cnccc12,inactive
10,CCOC(=O)c1coc(C(=O)OCC)c1C(=O)OCC,inactive
11,O=C(NCCCN1CCCC1)c1ccc2c(Cl)c3c(nc2c1)CCCC3,"inconclusive: 23.1 µM [falling, partial curve, poor fit]"
12,N#Cc1ccc(OCC(=O)OCC(=O)c2ccc[nH]2)cc1,inactive
13,COc1ccc(N=Nc2nc(-c3ccccc3)c(-c3ccccc3)[nH]2)cc1,"inconclusive: 16.4 µM [falling, single point]"
14,CCOc1ccc(-c2nnc(-c3ccco3)o2)cc1OCC,"inconclusive: 25.9 µM [activator, partial curve, poor fit]"
15,Nc1c(N(CCO)C(=O)/C=C/c2ccco2)c(=O)[nH]c(=O)n1Cc1ccccc1,inactive
16,COc1ccc(NS(=O)(=O)c2cc([N+](=O)[O-])ccc2N/N=C/c2c(C)[nH]c3ccccc23)cc1,"inconclusive: 29.1 µM [falling, single point]"
17,Cc1c(-c2ccccc2)c(=O)oc2c(CN3CCCC3)c(O)ccc12,"inconclusive: 16.4 µM [activator, partial curve, poor fit]"
18,FC(F)(F)c1cnc(Sc2nc3nccc(-c4ccc(Cl)cc4)n3n2)c(Cl)c1,"inconclusive: 23.1 µM [falling, single point]"
19,CCOC(=O)/C(=C\C=C\N1CCOCC1)C(C)=O,"inconclusive: 16.4 µM [falling, partial curve]"
20,CCN1CCN(c2cc(C(C)(C)C)nc3c(-c4ccccc4)c(C)nn23)CC1,"inconclusive: 18.4 µM [falling, single point]"
21,CC(C)Oc1cccc(C(=O)NC(=S)Nc2cccnc2)c1,inactive
22,Cc1cc(N2CCN(C)CC2)ccc1NC(=O)c1c2c(nc3ccccc13)CCN(Cc1ccccc1)C2,active: 10.3 µM
23,CCc1nnc(NC(=O)CSc2nccn2-c2cccc(C)c2C)s1,"inconclusive: 29.1 µM [falling, partial curve, poor fit]"

row,SMILES,Potency
1,COc1cccc(OCCOCCOc2ccc(C)cc2[N+](=O)[O-])c1,"inconclusive: 11.6 µM [activator, partial curve, poor fit]"
2,O=C(O)C1Nc2c(C(F)(F)F)ccc(Cl)c2C2C=CCC12 (configuration not stated),inactive
3,Cc1noc(C)c1S(=O)(=O)N1CCCC(C(=O)Nc2ccc(C(C)C)cc2)C1 (configuration not stated),"inconclusive: 32.6 µM [activator, partial curve, poor fit]"
4,COc1c(Cl)cc(Cl)cc1CNCCNCCO,"inconclusive: 29.1 µM [activator, partial curve, poor fit]"
5,CC(C)=CCc1c2c(c3occ(-c4ccc(O)c(O)c4)c(=O)c3c1O)C=CC(C)(C)O2,"inconclusive: 29.1 µM [falling, single point]"
6,O=C(O)CCc1ccc(S(=O)(=O)Nc2ccc(OCc3ccccc3)cc2)cc1,inactive
7,Cc1ccc(C(=O)NC(NC(=S)Nc2ccc(S(N)(=O)=O)cc2)C(Cl)(Cl)Cl)cc1 (configuration not stated),inactive
8,Cc1cccc(Cn2cc(C(=O)Nc3ccc(S(N)(=O)=O)cc3)ccc2=O)c1,inactive
9,CCN(CC)c1cc(C)c2cc(NC(=O)c3ccc(Br)o3)ccc2n1,"inconclusive: 29.1 µM [falling, single point]"
10,CC(C)(C)c1ccccc1OCCCCCNCCO,"inconclusive: 20.6 µM [falling, partial curve]"
11,Cc1ccc(C)c(Nc2nc3nonc3nc2Nc2cccc(C)c2C)c1,"inconclusive: 20.6 µM [falling, single point]"
12,C=CCC[C@@H](Cc1ccc(F)cc1)C(=O)O[C@H](CNC(=O)[C@H](CC=C)CC(=O)N(CCO)Cc1ccccc1)c1ccccc1,"inconclusive: 18.4 µM [falling, single point]"
13,CCOC(=O)N1CCC(NC(=O)c2cc(S(=O)(=O)N3CCOCC3)ccc2F)CC1,"inconclusive: 0.517 µM [activator, single point]"
14,CCCCN1C(C)=CC(=C2C(=O)c3ccccc3C2=O)C=C1C,inactive
15,CCN1C=C(Cc2ccc(F)cc2)C2=C(C1)C(c1ccc(F)cc1)C(C#N)=C(N)O2 (configuration not stated),"inconclusive: 32.6 µM [falling, partial curve, poor fit]"
16,Cc1c(/C=N/NC(=O)c2ccc(O)cc2)c2ccccn2c1C(=O)c1ccc(F)cc1,"inconclusive: 18.4 µM [falling, single point]"
17,CCN1CCN(c2c(Cl)cccc2NC(=O)c2ccco2)CC1,"inconclusive: 29.1 µM [falling, partial curve, poor fit]"
18,Cc1ccc(C(=O)N/N=C/c2ccc(-c3cccc(C(F)(F)F)c3)o2)cn1,"inconclusive: 3.66 µM [falling, partial curve, poor fit]"
19,COc1cccc(-c2c(NC(=O)c3ccco3)oc3ccccc3c2=O)c1,"inconclusive: 23.1 µM [falling, partial curve, poor fit]"
20,CCc1nnc(N/N=C/c2ccccc2F)n1N,inactive
21,CCOc1ccc2[nH]c(=O)c(CN(Cc3ccco3)C(=O)c3cccc(F)c3)cc2c1,inactive
